{"source": "PubChem BioAssay AID2685", "about": "(National Center for Advancing Translational Sciences (NCATS), 2010)", "note": "The whole screen tested about 320,000 compounds, of which about 2,100 (0.66%) were called active. This list was built around the results that the source calls inconclusive (neither active nor inactive); the mix of calls is not that of the screen. Calls follow the shape of the dose curve; as a rule, active = well fitted inhibition curve with a large enough effect in the signal ratio, with a control signal flat (not every such curve was filed as active); inconclusive = small, poorly fitted or top-dose-only effect, or effect the other way, or a change in a side signal; inactive = flat fitted curve, though single readings scatter; the % refers to the signal ratio. Where the call is inconclusive, the potency comes from a doubtful curve fit. % is scaled to controls: 0 for no effect and ±100 for the full control effect; potency is read from the fitted curve at half-maximal effect."}
{"experiment": "qHTS Assay for Lipid Storage Modulators in Drosophila S3 Cells", "settings": "BODIPY lipid droplet fluorescence, 18-24 h, cells fed with added oleic acid; lipid storage change, negative = inhibition: at 46.1 µM (top of the series) unless noted", "procedure,_shortened": "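Laser-scanning cytometry quantifies lipid droplet accumulation (500–530 nm total intensity; droplet/cell object ratio) in oleic acid-fed (400 uM added) Drosophila S3 cells treated with a concentration series. 20 uM Triacsin C defined 100% inhibition.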"}
{"smiles": "COc1ccc(NC(=O)CSc2nccn2-c2cccc(OC)c2)cc1", "lipid storage change, negative = inhibition": "inconclusive: -28.7%"}
{"smiles": "CC(=O)c1c(C)[nH]c(C(=O)Nc2cccc(S(=O)(=O)N(C)c3ccccc3)c2)c1C", "lipid storage change, negative = inhibition": "inconclusive: -9.23%"}
{"smiles": "Cc1ccc(S(=O)(=O)N(NC2=NS(=O)(=O)c3ccccc32)C(=O)c2ccccc2)cc1", "Potency": "inconclusive: 13 µM [activator, partial curve, poor fit]"}
{"smiles": "O=C(OCC(=O)N1CCCc2ccccc21)c1c(F)cccc1F", "lipid storage change, negative = inhibition": "inconclusive"}
{"smiles": "CN(Cc1nc(Cc2ccccc2F)no1)Cc1cccc2ncccc12", "lipid storage change, negative = inhibition": "inconclusive: 3.73%"}
{"smiles": "CC(C)C[C@H](NC(=O)N1CCn2c1nc1ccccc12)C(=O)NCc1ccco1", "lipid storage change, negative = inhibition": "inconclusive: -72.9%"}
{"smiles": "CC(C)n1c(O)c(N=Nc2ccc(Cl)nn2)c2ccccc21", "lipid storage change, negative = inhibition": "inconclusive: -0.225%"}
{"smiles": "CCOC(=O)c1c(NC(=O)CN2C(=O)NC3(CCC(C)CC3)C2=O)sc(C(=O)N(C)C)c1C", "note": "(centres undefined)", "Potency": "inconclusive: 8.2 µM [activator, partial curve]"}
{"smiles": "COc1cc(C(=O)NC(=S)Nc2ccccc2N2CCOCC2)cc(OC)c1OC", "lipid storage change, negative = inhibition": "inconclusive: -82.2%"}
{"smiles": "CC(Nc1nc(C(F)(F)F)nc2ccccc12)c1cccs1", "note": "(centres undefined)", "lipid storage change, negative = inhibition": "inconclusive: -64.4%"}
{"smiles": "CC(=O)c1ccccc1NC(=O)COc1ccc(N(C)S(=O)(=O)c2ccc(C)c(C)c2)cc1", "Potency": "inconclusive: 29.1 µM [falling, single point]"}
{"smiles": "Cc1ccccc1NC(=O)COC(=O)c1cc(=O)c2ccccc2o1", "lipid storage change, negative = inhibition": "inconclusive: -2.39%"}
{"smiles": "CC(C)c1ccc(CN2CCN(S(=O)(=O)c3ccc(Cl)s3)CC2)cc1", "lipid storage change, negative = inhibition": "inconclusive: -91%"}
{"smiles": "O=S(=O)(NC1CCN(S(=O)(=O)c2ccc3c(c2)OCCO3)C1)c1c(F)cccc1F", "note": "(centres undefined)", "Potency": "inconclusive: 6.51 µM [falling, single point]"}
{"smiles": "Cc1ccccc1C(=O)N1CCC(C(=O)Nc2ccc(S(=O)(=O)N3CCOCC3)cc2)CC1", "Potency": "inconclusive: 29.1 µM [falling, partial curve, poor fit]"}
{"smiles": "CCC(C)NC(=O)c1oc2ccc(S(=O)(=O)N3CCC4(CC3)OCCO4)cc2c1C", "note": "(centres undefined)", "Potency": "inconclusive: 3.26 µM [activator, partial curve, poor fit]"}
{"smiles": "CN(CC(=O)NC1CCCCC1)S(=O)(=O)c1ccc(Br)s1", "lipid storage change, negative = inhibition": "inconclusive: 17.2%"}
{"smiles": "C(=N/Nc1nc(-c2ccccc2)cc(-c2ccccc2)n1)/c1cccnc1", "lipid storage change, negative = inhibition": "inconclusive: -43.7%"}
{"smiles": "CN1CCN(c2ccc(-c3ccnn3C(=O)Nc3cccc(C(F)(F)F)c3)cc2)CC1", "lipid storage change, negative = inhibition": "inconclusive: -46%"}
{"smiles": "COc1ccc(-c2noc(N3CCC(C(=O)NCCCN4CCCCC4)CC3)n2)cc1", "Potency": "inconclusive: 29.1 µM [activator, single point]"}
{"smiles": "CC(C)[C@H](NC(=O)c1ccccc1)C(=O)OCC(=O)NCCc1ccc(F)cc1", "Potency": "inconclusive: 0.326 µM [activator, partial curve]"}
{"smiles": "O=C(NC1CCS(=O)(=O)C1)c1c(NC(=O)C2COc3ccccc3O2)sc2c1CCCC2", "note": "(centres undefined)", "Potency": "inconclusive: 18.4 µM [activator, single point]"}
{"smiles": "Cc1cc(NC(=O)c2cc(Cl)ccc2Cl)no1", "Potency": "inconclusive: 32.6 µM [activator, single point]"}
{"smiles": "CC(OC(=O)C(NC(=O)c1ccco1)C(C)C)C(=O)Nc1ncc(Cl)cc1Cl", "note": "(centres undefined)", "Potency": "inconclusive: 29.1 µM [falling, single point]"}
{"smiles": "O=C(NNC(=O)c1c(O)c2ccccc2[nH]c1=O)c1ccccc1", "Potency": "inconclusive: 7.31 µM [activator, partial curve]"}
{"smiles": "O=C(c1cc(=O)c2ccccc2o1)N1CCCc2ccccc21", "lipid storage change, negative = inhibition": "inconclusive: 7.41%"}
{"smiles": "Cc1ccc(C(=O)N2CCN(c3ccc(NC(=O)c4cccnc4Cl)cc3)CC2)cc1", "lipid storage change, negative = inhibition": "inconclusive: -28.6%"}
{"smiles": "CC(C)(C)c1ccc(C2C3=C(CCCC3=O)NC3=C2C(=O)c2ccccc23)cc1", "note": "(centres undefined)", "lipid storage change, negative = inhibition": "inconclusive: -19.3%"}
{"smiles": "Cc1oc(-c2nc3ccccc3n2C)cc1C(=O)c1ccccc1", "lipid storage change, negative = inhibition": "inconclusive: -29.1%"}
{"smiles": "COc1ccc(-c2cc(C(=O)Nc3cccc(C(C)=O)c3)no2)cc1", "Potency": "inconclusive: 0.366 µM [activator, full curve, poor fit]"}
{"smiles": "Cc1ccc(N2CC(C(=O)N3CCC(C(=O)Nc4ccc(Br)cc4)CC3)CC2=O)cc1", "note": "(centres undefined)", "lipid storage change, negative = inhibition": "inconclusive: 113%"}
{"smiles": "Nc1nc(-c2ccco2)c(-c2ccco2)s1", "lipid storage change, negative = inhibition": "inconclusive: 42.4%"}
{"smiles": "CN(CC(=O)NCc1ccccn1)S(=O)(=O)c1ccc(Cl)cc1", "lipid storage change, negative = inhibition": "inconclusive: 31.8%"}
{"smiles": "COc1cccc(C(=O)Nc2ccncc2)c1OC", "lipid storage change, negative = inhibition": "inconclusive: -44.4%"}
{"smiles": "O=C1OCc2ccc(NS(=O)(=O)c3ccc(C(F)(F)F)cc3)cc21", "lipid storage change, negative = inhibition": "inconclusive: 33.4%"}
{"smiles": "CCN(CC)C(=O)C1CCCN(c2ncnc3c2cnn3-c2ccc(Cl)cc2)C1", "note": "(centres undefined)", "lipid storage change, negative = inhibition": "inconclusive: 22.5%"}
{"smiles": "CC1CCc2cc(F)ccc2N1C(=O)c1cccs1", "note": "(centres undefined)", "lipid storage change, negative = inhibition": "inconclusive: -10.1% [at 9.22 µM]"}
{"smiles": "COc1ccc(-c2nnc(SCCc3ccccc3)n2N)cc1", "Potency": "inconclusive: 6.51 µM [rising, single point]"}
{"smiles": "Cc1cc(Nc2ncc(Cl)cc2Cl)n[nH]1", "Potency": "inconclusive: 18.4 µM [activator, single point]"}
{"smiles": "CCOc1cccc2sc(NC(=O)CCS(=O)(=O)c3ccccc3)nc12", "lipid storage change, negative = inhibition": "inconclusive: -19.5%"}
{"smiles": "CCC(Sc1nc2ccncc2[nH]1)C(=O)Nc1ccc(C)c(Cl)c1", "note": "(centres undefined)", "Potency": "inconclusive: 23.1 µM [falling, single point]"}
{"smiles": "Clc1cnc(Nc2cccnc2)c(Cl)c1", "Potency": "inconclusive: 9.2 µM [activator, partial curve, poor fit]"}
{"smiles": "CCC/C(=N\\NC(=O)C1CCCC1)c1ccccc1", "Potency": "inconclusive: 29.1 µM [activator, single point]"}
{"smiles": "COc1ccc(N2CCN(C(=O)c3c(C)nn(-c4ccccc4)c3C)CC2)cc1", "lipid storage change, negative = inhibition": "inconclusive: 48.9%"}
{"smiles": "COCCCNC(=O)Cn1cc(C(=O)C2CC2)c2ccccc21", "Potency": "inconclusive: 29.1 µM [activator, single point]"}
{"smiles": "Cc1ccc(N2C(=O)N3[C@H]4c5ccccc5OC[C@@H]4[C@@H](c4ccccc4)[C@@]3(C)C2=O)cc1", "lipid storage change, negative = inhibition": "inconclusive: 338%"}
{"smiles": "O=C(CCN1CCN(Cc2ccccc2)CC1)NNC(=O)Nc1cccc([N+](=O)[O-])c1", "Potency": "inconclusive: 23.1 µM [activator, single point]"}
{"smiles": "Fc1ccccc1-c1nc(-c2ccccc2)no1", "lipid storage change, negative = inhibition": "inconclusive: -13.1%"}
{"smiles": "COC(=O)c1ccccc1OCC(=O)NC1CCCCC1", "Potency": "inconclusive: 2.06 µM [activator, partial curve]"}
{"smiles": "COc1cccc(CNC(=O)CCC(=O)N2Cc3cccc(OC)c3Oc3ncccc32)c1OC", "lipid storage change, negative = inhibition": "inactive: -20.7%"}
{"smiles": "Cc1ccc(NC(=O)[C@H](Cc2c[nH]c3ccccc23)NC(=O)[C@@H]2Cc3ccccc3CN2)c(C)c1", "lipid storage change, negative = inhibition": "inconclusive: -39.6%"}
{"smiles": "COc1cccc(OCC(=O)N(Cc2nc(-c3ccc(Cl)cc3)no2)C(C)C)c1", "Potency": "inconclusive: 1.3 µM [activator, full curve]"}
{"smiles": "O=C(Cn1cc2c(n1)CCCCC2)Nc1c(F)c(F)cc(F)c1F", "lipid storage change, negative = inhibition": "inconclusive: -11.8%"}
{"smiles": "Cc1ccc(-c2cc(Cc3ccc(N(C)C)cc3)c(=O)[nH]n2)cc1", "lipid storage change, negative = inhibition": "inconclusive: 58.7%"}
{"smiles": "COc1c(C)cc(Br)cc1C(=O)O", "Potency": "inconclusive: 29.1 µM [falling, single point]"}
{"smiles": "CCN(CC(=O)Nc1ccc2c(c1)OCCO2)c1nc(-c2cccnc2)nc2ccccc12", "lipid storage change, negative = inhibition": "inconclusive: 5.66%"}
{"smiles": "Fc1ccc2cnc(-c3ccccc3)c(-c3ccc(C(F)(F)F)cc3)c2c1", "lipid storage change, negative = inhibition": "inconclusive: -16%"}
{"smiles": "CCOC(=O)/C(=N\\Nc1ccccc1)S(=O)(=O)c1ccccc1", "Potency": "inconclusive: 6.51 µM [rising, full curve]"}
{"smiles": "CCn1c2ccccc2c2nnc(SCc3cc(=O)n4ccsc4n3)nc21", "Potency": "inconclusive: 3.26 µM [activator, single point]"}
{"smiles": "CCN(CC)S(=O)(=O)c1ccc(OC)c(NC(=O)Cc2cccs2)c1", "lipid storage change, negative = inhibition": "inconclusive: 11.7%"}
{"smiles": "COc1ccc2nc(NC(=O)CSCc3c(C)noc3C)sc2c1", "lipid storage change, negative = inhibition": "inconclusive: 4.46%"}
{"smiles": "c1ccc2c(c1)cnc1ccccc12", "lipid storage change, negative = inhibition": "inconclusive: 38.1%"}
{"smiles": "CC1=C(Sc2ccccn2)C(=O)NC(C)(C)C1", "Potency": "inconclusive: 18.4 µM [falling, single point]"}
{"smiles": "CS(=O)(=O)NC1CCN(Cc2ccccc2)CC1", "lipid storage change, negative = inhibition": "inconclusive: -8.39%"}
{"smiles": "CCc1ccc(C(C(=O)NC2CCCC2)N(C(=O)/C=C/C(=O)Nc2cc(C)on2)c2ccccc2C)cc1", "note": "(centres undefined)", "lipid storage change, negative = inhibition": "inconclusive: 0.549%"}
{"smiles": "COc1ccc(OC)c(-c2csc(NC(=O)Cc3ccc(F)cc3)n2)c1", "Potency": "inconclusive: 0.13 µM [activator, full curve, poor fit]"}
{"smiles": "COc1ccc(NC(=O)c2ccc(COCC(F)(F)F)cc2)cc1OC", "lipid storage change, negative = inhibition": "inconclusive: 24.9%"}
{"smiles": "O=C(O)c1cccc(-c2ccc(/C=N/n3cnnc3)o2)c1", "Potency": "inconclusive: 4.11 µM [activator, full curve, poor fit]"}
{"smiles": "CCOC(=O)C1CCCCN1Cc1ccc(F)c(Br)c1", "note": "(centres undefined)", "lipid storage change, negative = inhibition": "inactive: 2.46%"}
{"smiles": "C=CCn1cc(C(=O)N2CCN(C)CC2)c(=O)c2cc(S(=O)(=O)N(CC)CC)ccc21", "lipid storage change, negative = inhibition": "inconclusive: 11.6%"}
{"smiles": "O=C(O)C1CCN(Cc2cccnc2)CC1", "lipid storage change, negative = inhibition": "inconclusive: 18.6%"}
{"smiles": "CC1CN(C(=O)c2ccccc2Sc2ccccc2C#N)CC(C)O1", "note": "(centres undefined)", "Potency": "inconclusive: 32.6 µM [activator, single point]"}
{"smiles": "COc1ccc(CCNC(=O)CN(Cc2ccc(Cl)cc2)S(C)(=O)=O)cc1OC", "outcome": "inactive [at 46.1 µM]"}
{"smiles": "COC(=O)N1CCN(c2ccc(Cl)c(Cl)c2)CC1", "Potency": "inconclusive: 2.06 µM [activator, partial curve]"}
